Values from PubChem BioAssay AID743454 (Peter MacCallum Cancer Centre, 2014)
Shown is an unselected part of about 18,000 deposited reagents. 450 of them (2.5%) were called active. 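Single biological run; no consistent viability z cut-off exists, so the class columns, not z-scores, define the calls.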 A number with no mark means an inactive call. Reagent sequences are not shown.

- Screen: 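Search for knock-downs that restore vorinostat killing in resistant colon cancer cells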 (primary screen)
- Cells: human HCT116-VR colon cancer cells, selected for vorinostat resistance
- Reagents: siRNA pool against human genes, 40 nM siRNA pool
- Duration: vorinostat for 24 h, read-out about 72 h after transfection
- Challenge: vorinostat at 2.5 µM final
- Measured: 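Two measures, CellTiter-Fluor viability and luminescent caspase 3/7 activity, each as fold change against same-plate mock wells, mean of duplicates, then screen-wide robust z-score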
- Scale: viability robust z-score: higher = more viable cells than screen typical; caspase robust z-score: higher = more caspase 3/7 activity than screen typical
- Hit rule: 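a knock-down is a hit when classed RV1 or RV2 for lowered viability, or CA1 or CA2 for caspase activation; those lethal without drug were dropped; hits were retested singly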

| target gene | viability hit class | caspase hit class | viability robust z-score | caspase robust z-score |
| --- | --- | --- | --- | --- |
| H2AC1 | no change | no change | 0.08 | 0.88 |
| ATP6V0A1 | no change | no change | 0.92 | 0.16 |
| WDR5 | no change | no change | -0.49 | 0.26 |
| TXNDC8 | no change | no change | -0.7 | 0.72 |
| STOML2 | no change | no change | -1.4 | 0.71 |
| KCNQ4 | no change | no change | -1.46 | -0.72 |
| STIL | no change | no change | -0.88 | 1.04 |
| SMARCA5 | no change | no change | -0.96 | 0.88 |
| MAB21L1 | no change | no change | -0.24 | 1.66 |
| ATF6B | no change | no change | -0.84 | 0.83 |
| UQCRH | no change | no change | 0.47 | -0.78 |
| NDUFB3 | no change | no change | -0.35 | -0.87 |
| FSTL3 | no change | no change | -0.42 | 2.82 |
| KCNQ1 | no change | no change | -0.76 | 0.21 |
| PRKAB1 | no change | no change | -0.68 | 4.99 |
| MPHOSPH8 | no change | no change | 0.83 | 0.56 |
| SMARCC1 | no change | no change | 0.72 | -0.29 |
| SLC12A4 | no change | no change | 1.36 | 0.74 |
| DCC | no change | no change | -0.25 | -0.56 |
| ZNF12 | no change | no change | 1.67 | 2.45 |
| CD93 | no change | no change | 0.61 | 0.2 |
| ASS1 | no change | no change | 1.49 | 0.67 |
| KCNC2 | no change | no change | 1.27 | -0.86 |
| SAXO6 | no change | no change | 1.37 | 0.03 |
| SMPD3 | no change | no change | -0.17 | -0.92 |
| HSDL2 | no change | no change | -0.53 | -0.7 |
| GLP2R | no change | no change | 0.82 | -0.58 |
| C1orf116 | no change | no change | -0.61 | 0.4 |
| LCN10 | no change | no change | 1.54 | 0.73 |
| SIX2 | no change | no change | -1.02 | -0.54 |
| CDH5 | no change | no change | 0.03 | 1.2 |
| CEACAM1 | no change | no change | -0.11 | 0.45 |
| MEGF9 | no change | no change | 1.1 | -0.66 |
| HMMR | no change | no change | 1.12 | -0.28 |
| TCAP | no change (active) | CA2 (caspase activation) | 0.46 | 5.16 |
| ZNF831 | no change | no change | -0.73 | 1.37 |
| SAAL1 | no change | no change | 0.4 | 0.26 |
| SNCG | no change | no change | 0.76 | -0.81 |

The list goes on; the last 6 above are carried over.
| target gene | viability hit class | caspase hit class | viability robust z-score | caspase robust z-score |
| --- | --- | --- | --- | --- |
| MEGF9 | no change | no change | 1.1 | -0.66 |
| HMMR | no change | no change | 1.12 | -0.28 |
| TCAP | no change (active) | CA2 (caspase activation) | 0.46 | 5.16 |
| ZNF831 | no change | no change | -0.73 | 1.37 |
| SAAL1 | no change | no change | 0.4 | 0.26 |
| SNCG | no change | no change | 0.76 | -0.81 |
| RALGAPA2 | no change | no change | 0.22 | -0.52 |
| ENOX2 | no change | no change | -0.16 | 0.57 |
| ADGRL3 | no change | no change | -0.2 | 0.04 |
| IQCF2 | no change | no change | 0.04 | 3.58 |
| PTCD3 | no change | no change | 0.9 | -0.59 |
| TMEM242 | no change | no change | 0.21 | 1.75 |
| RHBDL1 | no change | no change | -0.52 | 0.7 |
| CYP2F1 | no change | no change | -0.64 | -0.52 |
| ERAL1 | no change | no change | 0.84 | -0.75 |
| PCDHGB1 | no change | no change | 1.94 | -0.89 |
| LAIR2 | no change | no change | -0.68 | 0.09 |
| ACER3 | no change | no change | 0.82 | -0.02 |
| SLC34A3 | no change | no change | 0.16 | 0.16 |
| FERD3L | no change | no change | 0.44 | 0.01 |
| FCGR2A | no change | no change | 0.63 | 2.11 |
| MED17 | no change | no change | 1.55 | -0.34 |
| TTC27 | no change | no change | -0.76 | -0.26 |
| KRTCAP2 | no change | no change | -0.15 | 0.21 |
| KRTAP10-5 | no change | no change | 0.6 | 1.18 |
| IARS1 | no change | no change | -0.18 | -0.5 |
| GSTA3 | no change | no change | 1.77 | 0.51 |
| RTN3 | no change | no change | 0.59 | -0.42 |
| FAM177B | no change (active) | CA2 (caspase activation) | -4.88 | 7.11 |
| SLC9A7 | no change | no change | 0.65 | -0.9 |
| TEX29 | no change | no change | -1.38 | -0.8 |
| DBH | no change | no change | -2.76 | 2.6 |
| ATG12 | no change | no change | -0.02 | -1 |
| TTLL8 | no change | no change | -2.02 | 3.65 |
| ADH6 | no change | no change | -0.08 | -0.02 |
| KPNA3 | no change | no change | -0.44 | 0.42 |
| IMPDH2 | no change | no change | -0.09 | 0.78 |
| FKBP1A | no change | no change | -2.02 | 0.46 |
| PCNX2 | no change | no change | -1.01 | 3.04 |
| PER3 | no change | no change | 1.44 | 0.71 |
| KLHL25 | no change | no change | -1.19 | -1.12 |
